Assay results taken from article PMC5519615.
Results are given in words; binding and its absence hold for the method and conditions named. Binding seen in cells or lysates may run through a third protein. Some results given as binding are weak or reduced against the parent protein; the word gives no strength.

Molecular target: T1, acid-sensing ion channel 1a (ASIC1a) (human (endogenous in HL-MVEC)) (UniProt P78348)
T1 sequence: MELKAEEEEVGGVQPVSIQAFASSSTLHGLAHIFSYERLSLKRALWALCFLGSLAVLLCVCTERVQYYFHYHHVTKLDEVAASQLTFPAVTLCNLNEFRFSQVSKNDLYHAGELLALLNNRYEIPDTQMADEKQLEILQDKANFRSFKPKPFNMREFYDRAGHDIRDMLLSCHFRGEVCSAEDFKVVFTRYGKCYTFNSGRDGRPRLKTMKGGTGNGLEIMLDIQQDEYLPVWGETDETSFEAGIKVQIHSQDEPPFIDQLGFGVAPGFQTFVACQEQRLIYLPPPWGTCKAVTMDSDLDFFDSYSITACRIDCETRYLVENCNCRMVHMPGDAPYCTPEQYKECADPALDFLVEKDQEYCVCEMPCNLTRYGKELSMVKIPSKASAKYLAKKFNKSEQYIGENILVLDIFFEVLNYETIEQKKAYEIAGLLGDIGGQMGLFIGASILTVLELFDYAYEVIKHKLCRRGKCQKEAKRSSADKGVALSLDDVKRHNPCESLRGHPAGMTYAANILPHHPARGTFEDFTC
Assay: co-IP; precleared whole HL-MVEC lysate (20 mM Tris-HCl pH 7.4, 0.15 M NaCl, 1% Nonidet P-40, 2 mM EDTA) incubated with ASIC1 antibody 1 h at 4°C, then agarose G magnetic beads overnight at 4°C; western blot with ENaC-α antibody

binding: binds
B1: epithelial sodium channel (ENaC)-α (protein, UniProt P37088 1-669)
chain: MEGNKLEEQDSSPPQSTPGLMKGNKREEQGLGPEPAAPQQPTAEEEALIEFHRSYRELFEFFCNNTTIHGAIRLVCSQHNRMKTAFWAVLWLCTFGMMYWQFGLLFGEYFSYPVSLNINLNSDKLVFPAVTICTLNPYRYPEIKEELEELDRITEQTLFDLYKYSSFTTLVAGSRSRRDLRGTLPHPLQRLRVPPPPHGARRARSVASSLRDNNPQVDWKDWKIGFQLCNQNKSDCFYQTYSSGVDAVREWYRFHYINILSRLPETLPSLEEDTLGNFIFACRFNQVSCNQANYSHFHHPMYGNCYTFNDKNNSNLWMSSMPGINNGLSLMLRAEQNDFIPLLSTVTGARVMVHGQDEPAFMDDGGFNLRPGVETSISMRKETLDRLGGDYGDCTKNGSDVPVENLYPSKYTQQVCIHSCFQESMIKECGCAYIFYPRPQNVEYCDYRKHSSWGYCYYKLQVDFSSDHLGCFTKCRKPCSVTSYQLSAGYSRWPSVTSQEWVFQMLSRQNNYTVNNKRNGVAKVNIFFKELNYKTNSESPSVTMVTLLSNLGSQWSLWFGSSVLSVVEMAELVFDLLVIMFLMLLRRFRSRYWSPGRGGRGAQEVASTLASSPPSHFCPHPMSLSLSQPGPAPSPALTAPPPAYATLGPRPSPGGSAGASSSTCPLGGP
